Measurements: PubChem BioAssay AID504834 (National Center for Advancing Translational Sciences (NCATS), 2011)
The whole screen tested about 320,000 compounds, of which about 22,000 (6.9%) were called active. Inconclusive results, whose numbers are uncertain, are shown with a selection of clear calls. Calls come from the whole dose curve; as a rule, active = well fitted inhibition curve with a large enough effect; inconclusive = small, poorly fitted or top-dose-only effect, or another doubt; inactive = no such curve, though single readings can be large or run the other way. A potency beside an inconclusive call is a rough fit, not a confirmed value.

assay: Primary qHTS for delayed death inhibitors of the malarial parasite plastid, 96 hour incubation; settings: P. falciparum luciferase reporter growth; series mostly up to 28.7 µM; activity change, negative = inhibition: at the top concentration
Outline: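 Readout is luminescence from an integrated firefly luciferase in P. falciparum. Red cells, 2% hematocrit and 0.05% parasitemia final, were cultured with compound through two parasite generations (96 hours) at 37 C, 5% CO2.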
% is set by controls: 0 for no effect and ±100 for the full control effect; potency is the fitted concentration of half-maximal effect.

| SMILES | Potency | activity change, negative = inhibition |
| --- | --- | --- |
| c1ccc(-n2c(SCC3CCCCO3)nnc2-c2cnccn2)cc1 (stereo not given) | inconclusive: 18.5 µM [inhibitor, single point] | – |
| O=C(Nc1nc2c(F)cccc2s1)c1ccc([N+](=O)[O-])o1 | inconclusive: 0.738 µM [inhibitor, full curve, poor fit] | – |
| COc1ccc(-c2cc3nc(-c4ccccc4)cc(N4CCC(O)CC4)n3n2)cc1 | – | inactive: -15.4% |
| CSc1cccc(CN2CCC(CO)(Cc3ccccc3)CC2)c1 | inconclusive: 2.08 µM [inhibitor, full curve, poor fit] | – |
| O=C(CS(=O)CC(=O)N(CC(=O)NC1CCCC1)c1ccccc1F)Nc1ccc(F)cc1 (stereo not given) | inconclusive: 11.7 µM [inhibitor, single point] | – |
| Cn1c(=O)c(C(=O)NCCCc2ccccc2)c(O)c2ccccc21 | inconclusive: 18.5 µM [inhibitor, single point] | – |
| CN(CC(=O)Nc1ccccc1Br)C(=O)c1cc(Cl)nc2ccccc12 | inconclusive: 18.5 µM [inhibitor, single point] | – |
| N[C@@H](CO)c1nnc([C@H](CCC(=O)O)NC(=O)C2CCNCC2)o1 | – | inactive: 83.5% |
| COc1cc(-c2c(C#N)c(N)nc3[nH]c(=S)[nH]c(=O)c23)ccc1O | – | inactive: 25.6% |
| CC1CCCCN1S(=O)(=O)c1ccc(NC(=O)c2cccs2)cc1 (stereo not given) | inconclusive: 18.5 µM [inhibitor, single point] | – |
| Cc1no[n+]([O-])c1COc1cccc(/C=N/Nc2nncn2N)c1 | inconclusive: 11.7 µM [inhibitor, single point] | – |
| CCOc1ccccc1NC(=O)CSc1nnc2ccc(-c3ccccn3)nn12 | – | inactive: -1.58% |
| Cc1c(C(=O)NCCC2=CCCCC2)cccc1[N+](=O)[O-] | inconclusive: 0.294 µM [inhibitor, partial curve, poor fit] | – |
| CC(C)c1nnc(N2C(=O)C(O)=C(C(=O)c3cccs3)C2c2ccccc2)s1 (stereo not given) | – | inactive: -14.8% |
| O=C(NC1CCCC1)c1cc(-c2ccc(F)cc2)on1 | – | inactive: 124% |
| COc1ccc(C(=O)NCCCN2CCOCC2)cc1 | inconclusive: 18.5 µM [inhibitor, single point] | – |
| N#CCCn1nc(-c2ccccc2)cc1Nc1ccccc1NC(=O)C(F)(F)F | inconclusive: 8.28 µM [inhibitor, partial curve, poor fit] | – |
| CCOc1ccc(NC(=O)CN(C)C(=O)c2cc3c(s2)CCC(C)C3)cc1OCC (stereo not given) | inconclusive: 5.22 µM [inhibitor, partial curve] | – |
| Cc1ccc(OCCCCN2CCc3ccccc3C2)cc1 | inconclusive: 18.5 µM [inhibitor, single point] | – |
| C/C(=N\NC(=O)c1ccoc1C)c1ccccc1 | – | inactive: 141% |
| CCOc1ccccc1C(=O)NCCCN1CCN(CCCNC(=O)c2ccccc2OCC)CC1 | inconclusive: 20.8 µM [inhibitor, partial curve, poor fit] | – |
| COc1ccc(-n2cc(CNCCN3CCOC3=O)c(-c3ccccc3Cl)n2)cc1 | inconclusive: 18.5 µM [inhibitor, single point] | – |
| CC(C)C(C)NC(=O)CN1C(=O)NC(c2ccccc2)(c2ccccc2)C1=O (stereo not given) | – | inactive: -4.17% |
| O=C(CNC(=O)/C(=C\c1ccc(F)cc1)NC(=O)c1ccccc1)OCc1ccccc1 | inconclusive: 0.131 µM [inhibitor, full curve, poor fit] | – |
| COc1ccc(-c2nc3c4ccccc4ccn3c2CN2CCOCC2)cc1OC | – | inactive: -2.22% |

| SMILES | Potency | activity change, negative = inhibition |
| --- | --- | --- |
| O=C(Nc1ccc2ncccc2c1)Nc1ccc2ncccc2c1 | inconclusive: 11.7 µM [inhibitor, single point] | – |
| Cc1nc(NCc2ccco2)c2c3c(sc2n1)CCC3 | – | inactive: -4.07% |
| Cc1ccc(OCCN2CCOCC2)cc1C | inconclusive: 18.5 µM [inhibitor, single point] | – |
| O=C(COc1ccccc1)Nc1ccc(S(=O)(=O)NCc2ccco2)cc1 | inconclusive: 1.31 µM [inhibitor, full curve] | – |
| Cc1c(C(=O)NCCO)[n+](=O)c2ccccc2n1[O-] | – | inactive: -30% |
| O=C(NCCCN1CCCC1=O)c1cc2nc(-c3ccco3)cc(C(F)(F)F)n2n1 | – | inactive: 21.2% |
| CCc1ccc(C(=O)Nn2c(C)nc3ccccc3c2=O)cc1 | – | inactive: 21.5% |
| COc1ccccc1NC(=S)N1C2CCC1CC(NC(=O)NC13CC4CC(CC(C4)C1)C3)C2 (stereo not given) | active: 4.65 µM | – |
| Cc1cc(NC(=O)c2ocnc2C)no1 | inconclusive: 4.65 µM [inhibitor, partial curve, poor fit] | – |
| COCCNC(=O)c1c(NC(=O)c2ccc(Br)o2)n(Cc2ccccc2)c2nc3ccccc3nc12 | inconclusive: 18.5 µM [inhibitor, single point] | – |
| CCn1c(=O)c2cc(C(=O)N(C)c3cc(C)ccc3OC)sc2c2ccccc21 | inconclusive: 13.1 µM [inhibitor, partial curve, poor fit] | – |
| O=C(Nc1ccc(Cl)c(Cl)c1)Nc1cc(S(=O)(=O)N2CCOCC2)ccc1N1CCCC1 | – | inactive: -1.58% |
| CCOC(=O)N/N=C(/C)c1ccc(N2C(=O)C3CCCCC3C2=O)cc1 (stereo not given) | inconclusive: 1.31 µM [inhibitor, full curve] | – |
| O=C(CNC1CCCCCC1)c1cccs1 | – | inactive: -19.3% |
| CCc1nnc(NC(=O)CSc2nnc(Cc3ccccc3)o2)s1 | inconclusive: 0.0041 µM [inhibitor, full curve, poor fit] | – |
| COCCSc1ccccc1C(=O)NCc1ccc2c(c1)OCO2 | inconclusive: 8.28 µM [inhibitor, partial curve] | – |
| O=C(C1CCC1)N1CCC(c2nc3c(nnn3Cc3c(F)cccc3Cl)c(=O)[nH]2)CC1 | – | inactive: 56.2% |
| CC(C)Cc1nnc(NC(=O)CCC(=O)N2CCC(C)CC2)s1 | inconclusive: 10.4 µM [inhibitor, partial curve, poor fit] | – |
| C=CCN=C1CC(C)(C)CC(=O)/C1=C(/O)CCC(=O)OC | inconclusive: 18.5 µM [inhibitor, single point] | – |
| CCOC(CNC(=O)Cn1nc(Cc2ccncc2)c2ccccc2c1=O)OCC | – | inactive: -6.4% |
| O=C(Cn1ncc2c3ccccc3n(Cc3ccccc3)c2c1=O)N1CCC2(CC1)OCCO2 | – | inactive: 0.755% |
| CCOc1ccc(C(C)=O)cc1CSc1nnc(N)s1 | – | inactive: -15% |
| CC1CC(C)CN(S(=O)(=O)c2ccc(C(=O)N3CCN(c4ccccc4)CC3)cc2)C1 (stereo not given) | inconclusive: 9.28 µM [inhibitor, single point] | – |
| O=C(CN1CCN(C(=O)c2cncn2-c2ccccc2)CC1)Nc1ccccc1Cl | active: 14.7 µM | – |
| O=C(Cn1c(NCCO)nc2ccccc21)c1ccccc1 | active: 9.28 µM | – |

| SMILES | Potency | activity change, negative = inhibition |
| --- | --- | --- |
| O=C(/C(=C\c1ccccc1)c1nc2ccccc2[nH]1)c1ccc(Cl)cc1 | inconclusive: 10.4 µM [inhibitor, single point] | – |
| Nc1nnc(CC(=O)N/N=C\c2ccc(-c3cccc(Cl)c3)o2)s1 | – | inactive: 3.86% |
| Cc1cccc(C2=N/C(=C\c3cccnc3)C(=O)O2)c1 | – | inactive: 22.2% |
| CN(C)CC(C)(C)CNC(=O)C1CCN(Cc2ccccc2O)CC1 | – | inactive: -10.8% |
| COc1ccc(N(CC(=O)NC2CCCCC2)S(=O)(=O)c2cccnc2)cc1 | inconclusive: 14.7 µM [inhibitor, single point] | – |
| CCC(C)NC(=O)C(NS(=O)(=O)c1cccc2nsnc12)c1ccccc1 (stereo not given) | inconclusive: 0.165 µM [inhibitor, full curve, poor fit] | – |
| CN1CCN(C2CCN(S(=O)(=O)c3ccc(C(C)(C)C)cc3)CC2)CC1 | – | inactive: -2.17% |
| O=C(Nc1ccc(-c2nc3ccccc3[nH]2)cc1)c1cccc(N2C(=O)CCC2=O)c1 | – | inactive: 1.47% |
| COC(CNc1ncnc2c1cnn2C)OC | – | inactive: 141% |
| O=C(Nc1cccc(-n2cccn2)c1)C1CCCN(Cc2ccccc2F)C1 (stereo not given) | inconclusive: 10.4 µM [inhibitor, single point] | – |
| COc1ccc(C(CNC(=O)C(C)(C)Oc2ccc(Cl)cc2)N2CCCC2)cc1 (stereo not given) | inconclusive: 18.5 µM [inhibitor, single point] | – |
| Cc1ccc(CNC(=O)CC2C(=O)Nc3c2c(=O)n(C)c(=O)n3Cc2ccccc2)cc1 (stereo not given) | inconclusive: 18.5 µM [inhibitor, single point] | – |
| COc1cc(C(=O)NCCC(=O)NCCN2CCOCC2)cc(OC)c1OC | – | inactive: -17.7% |
| COc1ccccc1CN1CN(S(=O)(=O)c2ccccc2)c2nc3ccccc3nc21 | inconclusive: 9.28 µM [inhibitor, partial curve] | – |
| COc1ccc(Nc2ccc(OC)cc2)cc1 | inconclusive: 18.5 µM [inhibitor, partial curve, poor fit] | – |
| CSc1n[nH]c(NCc2ccc(Cl)cc2)n1 | – | inactive: 33% |
| O=C(O)CC(=O)Nc1ccccc1C(=O)O | inconclusive: 13.1 µM [inhibitor, single point] | – |
| O=C(/C=C/c1ccccc1Cl)OCC(=O)c1ccc[nH]1 | – | inactive: 103% |
| CCOC(=O)c1cnc2ccc(C)cc2c1Sc1ccccc1 | inconclusive: 11.7 µM [inhibitor, single point] | – |
| CCN1CCSc2ccc(C(=O)NCc3ccccc3C)cc21 | inconclusive: 18.5 µM [inhibitor, single point] | – |
| O=C1CC(NS(=O)(=O)c2ccccc2F)CN1c1ccc2c(c1)OCCO2 (stereo not given) | – | inactive: -8.07% |
| C=CCCN([C@@H](C)C(=O)OC)S(=O)(=O)c1ccccc1Br | inconclusive: 10.4 µM [inhibitor, single point] | – |
| COc1ccc(CN2CC(C(=O)NCCN3CCOCC3)CC2=O)cc1 (stereo not given) | inconclusive: 2.08 µM [inhibitor, full curve] | – |
| COc1ccc(CC(=O)Nc2ccc(S(=O)(=O)Nc3nccs3)cc2)cc1 | – | inactive: 21% |
| Cc1ccc(NC(=O)c2cccc(S(=O)(=O)N3CCN(c4ccccc4)CC3)c2)nc1 | inconclusive: 18.5 µM [inhibitor, single point] | – |

Record cards (already shown).
CCOC(=O)N/N=C(/C)c1ccc(N2C(=O)C3CCCCC3C2=O)cc1 (stereo not given) in the list: Potency: inconclusive: 1.31 µM [inhibitor, full curve]
CCN1CCSc2ccc(C(=O)NCc3ccccc3C)cc21 in the list: Potency: inconclusive: 18.5 µM [inhibitor, single point]
COc1ccc(-n2cc(CNCCN3CCOC3=O)c(-c3ccccc3Cl)n2)cc1 in the list: Potency: inconclusive: 18.5 µM [inhibitor, single point]
CC1CC(C)CN(S(=O)(=O)c2ccc(C(=O)N3CCN(c4ccccc4)CC3)cc2)C1 (stereo not given) in the list: Potency: inconclusive: 9.28 µM [inhibitor, single point]
